The values are deposited in ChEMBL (CHEMBL3988442, “University of Dundee, Small-Polar-MMV Screening Library” (2021)).

Chains of the proteins cited; added tags and fusions are not shown. Residues count along the entry.
UniProt Q4DA54, 1-478: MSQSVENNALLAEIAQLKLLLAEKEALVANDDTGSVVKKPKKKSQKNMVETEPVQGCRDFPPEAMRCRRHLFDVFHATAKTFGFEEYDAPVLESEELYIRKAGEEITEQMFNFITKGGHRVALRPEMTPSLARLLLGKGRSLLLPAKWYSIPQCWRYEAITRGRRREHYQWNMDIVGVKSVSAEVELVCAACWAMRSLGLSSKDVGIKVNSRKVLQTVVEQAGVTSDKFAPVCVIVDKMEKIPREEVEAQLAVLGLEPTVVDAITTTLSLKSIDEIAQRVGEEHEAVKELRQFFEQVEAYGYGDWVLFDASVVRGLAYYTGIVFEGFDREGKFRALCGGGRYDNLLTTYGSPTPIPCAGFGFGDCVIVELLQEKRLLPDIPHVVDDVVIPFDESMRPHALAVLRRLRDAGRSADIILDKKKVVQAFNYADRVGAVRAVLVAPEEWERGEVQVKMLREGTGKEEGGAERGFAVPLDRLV
UniProt A4I591, 1-473: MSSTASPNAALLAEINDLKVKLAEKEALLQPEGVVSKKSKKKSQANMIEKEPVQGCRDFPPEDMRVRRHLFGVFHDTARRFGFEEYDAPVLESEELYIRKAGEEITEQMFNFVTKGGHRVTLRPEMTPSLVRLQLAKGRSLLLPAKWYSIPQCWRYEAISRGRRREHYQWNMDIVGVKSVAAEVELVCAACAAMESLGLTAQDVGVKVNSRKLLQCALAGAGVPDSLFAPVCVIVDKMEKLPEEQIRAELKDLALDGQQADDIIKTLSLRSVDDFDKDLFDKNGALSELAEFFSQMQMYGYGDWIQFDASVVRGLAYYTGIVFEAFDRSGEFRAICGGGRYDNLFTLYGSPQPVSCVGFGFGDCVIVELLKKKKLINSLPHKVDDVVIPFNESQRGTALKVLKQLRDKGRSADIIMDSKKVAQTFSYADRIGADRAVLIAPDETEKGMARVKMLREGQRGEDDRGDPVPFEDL

A: 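Enzyme assay of histidyl-tRNA synthetase; the read-out is not stated. Target: Histidine-tRNA ligase, Trypanosoma cruzi CL Brener (UniProt Q4DA54). Concentration: 30 µM. Higher reads as stronger inhibition (inferred: compounds with an IC50 in retests scored well above the rest). About 69,000 compounds were tested under these conditions; 0.045% (about 31) showed 50% or more at least once.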
B: 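Histidine-tRNA ligase, Leishmania infantum (UniProt A4I591). Enzyme assay of histidyl-tRNA synthetase; the read-out is not stated. Concentration: 30 µM. Direction is inferred from retests: higher values go with stronger inhibition. The assay is labelled LdHisRS but filed under L. infantum. About 69,000 compounds were tested under these conditions; 0.6% (about 410) showed 50% or more at least once.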

Results are given as percent effect.
How 0% and 100% were set is not recorded. Most values in the screen are low, and negative values occur.
The compounds are a random part of those screened.

SMILES,A,B
Cc1nccn1CC1CCCN(S(=O)(=O)c2cnn(C)c2)C1 (stereo not shown),4.651,11.35
O=C(NCCCn1cccn1)C1(c2ccc(Br)cc2)CC1,3.306,17.31
CNc1nc(C2CCCN2)nc2c1CCN(S(=O)(=O)C1CCCCC1)C2 (stereo not shown),3.846,4.225
CC(=O)N1CCN(C(=O)CCc2cc(Br)cs2)CC1,2.89,6.667
Cc1cc(C)n(C(=O)c2cn(C)nc2S(=O)(=O)N2CCSCC2)n1,5.82,23.53
CC(C)CC(=O)NC1CC2(CCN(CCF)CC2)Oc2ccccc21 (stereo not shown),0.9709,7.692
CC(NC(=O)CSCC(=O)Nc1ccccc1)c1ccccc1 (stereo not shown),4.545,1.515
COCCN1CCOCC12CCN(c1nccs1)CC2,2.062,22
Cc1nc2c(c(NCC(=O)NC(C)C)n1)Cc1ccccc1OC2,4.478,22.89
CCOCCCC(=O)N(C)C(c1cccc(F)c1)c1ccccn1 (stereo not shown),2.286,19.23
CCOc1ccccc1CC(=O)N1CCCC(c2ncc[nH]2)C1 (stereo not shown),-9.756,15.66
COCCN1C[C@H]2CCN(C(=O)Nc3ccccc3C)CC[C@H]2S1(=O)=O,8.738,17.48
COCCN1C(=O)CC(c2cccnc2)C12CCN(C(=O)C1CC1)CC2 (stereo not shown),0,-90.99
c1cnc(N2CC[C@@H](OCC3CC3)[C@@H]2Cc2cccnc2)nc1,8.38,13.46
Cc1ccc(C)c(OCCN(C)C(=O)C2CCCN2C(N)=O)c1C (stereo not shown),2.762,4.225
CC(Oc1ccccc1C(F)(F)F)C(=O)NS(=O)(=O)C(C)C (stereo not shown),2.674,26.92
CC(C)c1nnc2n1CCN(Cc1ccc3c(c1)OCO3)CC2,-2.609,0
Cc1cccc(CN2CCC3(CC2)CC(c2cccnc2)C(=O)N3C)n1 (stereo not shown),11.11,26.42
Cc1cc(NC(=O)Cc2ccccc2O)cnc1N1CCCCC1,4.972,15.49
Cc1cc(N2CCCC2)c(C#N)c(C)n1,0,11.71
CN1CCN(C(=O)[C@H]2CC[C@@H]3[C@@H](CCN3Cc3ccsc3)O2)CC1,6.863,22.86
CCCN1CCC(N2CCN(c3cc(C)nc(C)c3)CC2)CC1,3.415,10.17
CC(C)n1nc2c(cc1=O)CN(CCOc1cccc(C#N)c1)CC2,12.42,5
CCCOC1CCCN(C(=O)c2ccnnc2)C1 (stereo not shown),4.167,16.13
Cn1c(=O)oc2cc(S(=O)(=O)N3CCC(c4ccccc4)C3)c(Cl)cc21 (stereo not shown),-3.509,8.929
COCCNC(=O)[C@@H]1C[C@H]2[C@H](CCN2c2cc(OC)ncn2)O1,2.857,5.556
CC(NC(=O)c1cc(=O)n(C)c(=O)n1C)c1ccccc1-n1cccn1 (stereo not shown),9.135,17.07
Cc1ccc(CN(C)C(=O)CN2CCCCC2Cn2cncn2)cc1 (stereo not shown),17.26,31.18
COc1cccc(CN2CCc3nc4ccsc4c(=O)n3CC2)c1,2.247,-8
Cc1ccccc1CSc1nc(N)cc(N2CCCC(O)C2)n1 (stereo not shown),11.96,6.061
CCN(Cc1nc2c(cnn2C)c(=O)[nH]1)Cc1ccccc1Cl,6.122,18.58
O=C(NCc1ccc(F)cc1)NCC(O)(c1ccco1)C1CC1 (stereo not shown),-5.155,6.957
COc1cc(C2(C(=O)N3CCCC(n4cncn4)C3)CC2)ccc1C (stereo not shown),4.046,4.464
Cc1nc2c(c(N3CCC4(CCCNC4=O)C3)n1)CCC2 (stereo not shown),1.093,5.479
COCC(=O)Nc1cc(S(=O)(=O)C(F)(F)F)ccc1OC,1.478,19.48
CN1CCN(C2CCN(CCOc3ccc(C#N)cc3)CC2)C1=O,1.149,6.957
COc1ccc(CN2C[C@@H]3CCCO[C@@H]3[C@H](NC(=O)CC3CC3)C2)cc1,4.902,25.71
Cc1nc(N2CCC(C(O)c3nccn3C)CC2)c2sccc2n1 (stereo not shown),5.202,0
CS(=O)(=O)CCNCc1ccc(OCc2cscn2)cc1,12.26,13.13
Cc1csc(CNc2cccc(OCCN3CCCC3)c2)n1,14.84,23.23
Cc1ccc(C(=O)NCCS(=O)(=O)Cc2ccccc2)c(=O)[nH]1,4.211,5.479
COc1ccc(Cl)cc1CCNC(=O)NCc1ccncc1,2.212,20.35

Once more, the final 3:

- Cc1csc(CNc2cccc(OCCN3CCCC3)c2)n1 | A: 14.84%; B: 23.23%
- Cc1ccc(C(=O)NCCS(=O)(=O)Cc2ccccc2)c(=O)[nH]1 | A: 4.211%; B: 5.479%
- COc1ccc(Cl)cc1CCNC(=O)NCc1ccncc1 | A: 2.212%; B: 20.35%